Measured values reported in the supplement of paper PMC10849652.
This is one part of the list.

Protein sequences, listed by entry. Tags and fused reporters are not part of them. Lines headed by an entry give the natural chain unless they say otherwise; changes in a name come on top.
UniProt Q9Y3C8: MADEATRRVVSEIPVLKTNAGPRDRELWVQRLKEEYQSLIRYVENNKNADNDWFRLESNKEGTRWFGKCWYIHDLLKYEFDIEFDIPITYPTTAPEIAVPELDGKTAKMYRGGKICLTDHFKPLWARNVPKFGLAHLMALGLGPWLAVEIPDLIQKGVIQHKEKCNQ
UniProt P55072, whole entry, looked up: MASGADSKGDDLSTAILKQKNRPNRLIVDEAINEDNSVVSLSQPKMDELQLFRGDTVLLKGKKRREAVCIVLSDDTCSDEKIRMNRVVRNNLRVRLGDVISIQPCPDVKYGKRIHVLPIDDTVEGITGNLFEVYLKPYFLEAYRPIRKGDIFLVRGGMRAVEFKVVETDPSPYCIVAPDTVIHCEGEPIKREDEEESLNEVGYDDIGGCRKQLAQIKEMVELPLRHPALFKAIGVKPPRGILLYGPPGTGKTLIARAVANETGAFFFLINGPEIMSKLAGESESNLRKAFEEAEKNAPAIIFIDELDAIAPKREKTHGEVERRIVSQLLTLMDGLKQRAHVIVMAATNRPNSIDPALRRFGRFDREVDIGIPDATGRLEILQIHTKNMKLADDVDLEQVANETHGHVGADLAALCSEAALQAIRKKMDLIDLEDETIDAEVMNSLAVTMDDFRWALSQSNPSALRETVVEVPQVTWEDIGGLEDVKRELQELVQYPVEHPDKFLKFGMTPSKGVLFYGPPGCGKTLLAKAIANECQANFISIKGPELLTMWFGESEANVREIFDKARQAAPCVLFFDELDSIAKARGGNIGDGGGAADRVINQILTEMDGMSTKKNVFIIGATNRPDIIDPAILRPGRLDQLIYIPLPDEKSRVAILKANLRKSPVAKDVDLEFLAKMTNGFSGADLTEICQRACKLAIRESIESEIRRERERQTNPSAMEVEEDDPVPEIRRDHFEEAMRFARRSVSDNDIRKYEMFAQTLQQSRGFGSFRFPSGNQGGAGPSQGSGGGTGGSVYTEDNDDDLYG
UniProt Q9P0L0: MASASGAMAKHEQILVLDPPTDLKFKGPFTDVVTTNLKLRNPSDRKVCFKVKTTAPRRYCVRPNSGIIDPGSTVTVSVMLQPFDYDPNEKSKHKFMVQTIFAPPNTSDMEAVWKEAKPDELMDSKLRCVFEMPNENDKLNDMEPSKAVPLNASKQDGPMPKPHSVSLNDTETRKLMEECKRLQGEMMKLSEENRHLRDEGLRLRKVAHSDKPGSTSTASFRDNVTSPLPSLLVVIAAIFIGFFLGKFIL
UniProt P51809, whole entry, looked up: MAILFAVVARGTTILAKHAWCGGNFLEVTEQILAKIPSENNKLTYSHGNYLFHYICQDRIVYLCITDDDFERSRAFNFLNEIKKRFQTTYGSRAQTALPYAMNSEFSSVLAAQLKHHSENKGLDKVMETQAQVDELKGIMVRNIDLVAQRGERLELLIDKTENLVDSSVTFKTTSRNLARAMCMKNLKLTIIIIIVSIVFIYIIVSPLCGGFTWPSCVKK
UniProt P07919: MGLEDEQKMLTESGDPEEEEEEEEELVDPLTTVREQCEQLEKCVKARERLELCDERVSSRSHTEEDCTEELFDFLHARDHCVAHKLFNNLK
UniProt Q86UV5: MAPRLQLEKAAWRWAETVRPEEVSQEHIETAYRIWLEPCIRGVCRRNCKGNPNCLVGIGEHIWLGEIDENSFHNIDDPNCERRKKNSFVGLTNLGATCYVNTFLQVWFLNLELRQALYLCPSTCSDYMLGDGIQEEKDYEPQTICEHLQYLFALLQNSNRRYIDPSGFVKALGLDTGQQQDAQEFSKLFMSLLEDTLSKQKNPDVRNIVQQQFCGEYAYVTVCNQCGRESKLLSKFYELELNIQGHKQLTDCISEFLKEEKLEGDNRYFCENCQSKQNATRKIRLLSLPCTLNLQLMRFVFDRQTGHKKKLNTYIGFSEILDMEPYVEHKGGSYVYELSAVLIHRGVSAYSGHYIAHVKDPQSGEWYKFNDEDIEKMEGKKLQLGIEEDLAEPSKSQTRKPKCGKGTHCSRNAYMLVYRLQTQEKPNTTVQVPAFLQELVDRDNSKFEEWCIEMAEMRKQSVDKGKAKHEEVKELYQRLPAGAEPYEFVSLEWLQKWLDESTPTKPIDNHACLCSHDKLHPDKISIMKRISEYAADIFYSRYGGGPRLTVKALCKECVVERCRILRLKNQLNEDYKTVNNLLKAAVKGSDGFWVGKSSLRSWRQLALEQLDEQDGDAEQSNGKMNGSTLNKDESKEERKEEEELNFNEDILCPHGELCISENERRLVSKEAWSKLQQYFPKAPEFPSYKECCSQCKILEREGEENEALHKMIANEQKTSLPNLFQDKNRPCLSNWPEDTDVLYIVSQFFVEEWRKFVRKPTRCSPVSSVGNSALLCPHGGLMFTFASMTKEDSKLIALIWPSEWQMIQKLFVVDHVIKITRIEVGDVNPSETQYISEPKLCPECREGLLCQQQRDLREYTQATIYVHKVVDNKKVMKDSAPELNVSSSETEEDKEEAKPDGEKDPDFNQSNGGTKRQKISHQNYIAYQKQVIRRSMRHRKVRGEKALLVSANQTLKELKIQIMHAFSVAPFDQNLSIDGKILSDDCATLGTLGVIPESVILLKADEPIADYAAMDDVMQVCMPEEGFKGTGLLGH
UniProt O60763: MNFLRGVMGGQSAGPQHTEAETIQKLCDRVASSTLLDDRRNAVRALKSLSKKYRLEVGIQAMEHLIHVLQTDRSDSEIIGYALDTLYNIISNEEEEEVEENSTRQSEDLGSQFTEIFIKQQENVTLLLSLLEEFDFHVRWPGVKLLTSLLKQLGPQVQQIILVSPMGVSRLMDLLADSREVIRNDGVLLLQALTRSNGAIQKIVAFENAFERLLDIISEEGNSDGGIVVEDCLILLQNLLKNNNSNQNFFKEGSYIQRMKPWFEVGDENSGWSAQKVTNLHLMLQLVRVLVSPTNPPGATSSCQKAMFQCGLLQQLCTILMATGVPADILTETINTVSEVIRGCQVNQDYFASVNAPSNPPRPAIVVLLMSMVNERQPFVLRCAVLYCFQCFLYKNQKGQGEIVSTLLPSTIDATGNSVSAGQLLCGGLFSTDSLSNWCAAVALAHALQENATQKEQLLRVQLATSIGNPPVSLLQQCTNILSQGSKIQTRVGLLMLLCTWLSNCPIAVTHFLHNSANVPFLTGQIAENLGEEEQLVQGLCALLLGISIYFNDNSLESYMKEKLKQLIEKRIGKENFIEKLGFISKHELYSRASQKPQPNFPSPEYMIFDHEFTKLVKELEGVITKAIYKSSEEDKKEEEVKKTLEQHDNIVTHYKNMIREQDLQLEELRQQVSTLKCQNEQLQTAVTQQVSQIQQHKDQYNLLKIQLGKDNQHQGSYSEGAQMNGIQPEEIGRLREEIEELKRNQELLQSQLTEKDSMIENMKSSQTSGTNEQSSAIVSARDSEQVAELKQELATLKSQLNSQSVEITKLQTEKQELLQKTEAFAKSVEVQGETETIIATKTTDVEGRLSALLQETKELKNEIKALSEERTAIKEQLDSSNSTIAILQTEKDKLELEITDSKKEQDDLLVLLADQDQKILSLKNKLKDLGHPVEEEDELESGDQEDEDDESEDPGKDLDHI
UniProt Q9UBK9, whole entry, looked up: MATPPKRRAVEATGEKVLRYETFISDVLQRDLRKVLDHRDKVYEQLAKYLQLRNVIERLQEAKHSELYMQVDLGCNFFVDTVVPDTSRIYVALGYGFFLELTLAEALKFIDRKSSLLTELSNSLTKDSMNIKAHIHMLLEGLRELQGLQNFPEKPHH
UniProt Q9UKW4: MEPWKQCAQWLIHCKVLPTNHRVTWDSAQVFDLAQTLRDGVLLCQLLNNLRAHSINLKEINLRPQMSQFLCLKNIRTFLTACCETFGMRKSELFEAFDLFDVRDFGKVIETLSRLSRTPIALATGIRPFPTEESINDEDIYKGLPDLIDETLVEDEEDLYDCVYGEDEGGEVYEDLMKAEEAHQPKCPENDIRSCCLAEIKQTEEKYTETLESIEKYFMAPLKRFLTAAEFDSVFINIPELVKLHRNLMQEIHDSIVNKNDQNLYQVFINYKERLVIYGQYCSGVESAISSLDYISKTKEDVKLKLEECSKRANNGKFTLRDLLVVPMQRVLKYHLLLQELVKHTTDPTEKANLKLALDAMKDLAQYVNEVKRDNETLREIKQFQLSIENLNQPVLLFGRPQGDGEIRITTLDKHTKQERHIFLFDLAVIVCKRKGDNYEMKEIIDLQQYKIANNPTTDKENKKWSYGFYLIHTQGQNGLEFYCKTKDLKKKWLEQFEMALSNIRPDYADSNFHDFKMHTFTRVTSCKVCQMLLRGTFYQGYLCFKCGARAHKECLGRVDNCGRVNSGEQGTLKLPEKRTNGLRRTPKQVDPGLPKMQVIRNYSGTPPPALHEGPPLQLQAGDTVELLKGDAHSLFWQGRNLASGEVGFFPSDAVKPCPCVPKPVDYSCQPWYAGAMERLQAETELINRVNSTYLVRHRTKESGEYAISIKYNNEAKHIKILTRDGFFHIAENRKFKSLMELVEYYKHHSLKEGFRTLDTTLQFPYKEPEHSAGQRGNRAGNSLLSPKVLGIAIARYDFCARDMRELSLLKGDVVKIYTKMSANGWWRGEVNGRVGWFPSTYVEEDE
UniProt Q96BW1: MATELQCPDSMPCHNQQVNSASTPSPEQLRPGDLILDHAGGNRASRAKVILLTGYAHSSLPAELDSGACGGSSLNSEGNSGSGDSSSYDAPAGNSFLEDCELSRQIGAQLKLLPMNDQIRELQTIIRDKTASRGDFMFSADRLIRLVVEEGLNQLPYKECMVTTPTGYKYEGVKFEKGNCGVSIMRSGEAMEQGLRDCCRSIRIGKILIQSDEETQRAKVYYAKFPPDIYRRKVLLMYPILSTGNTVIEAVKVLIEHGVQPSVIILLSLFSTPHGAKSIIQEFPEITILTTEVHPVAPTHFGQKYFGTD
UniProt Q9Y4E8: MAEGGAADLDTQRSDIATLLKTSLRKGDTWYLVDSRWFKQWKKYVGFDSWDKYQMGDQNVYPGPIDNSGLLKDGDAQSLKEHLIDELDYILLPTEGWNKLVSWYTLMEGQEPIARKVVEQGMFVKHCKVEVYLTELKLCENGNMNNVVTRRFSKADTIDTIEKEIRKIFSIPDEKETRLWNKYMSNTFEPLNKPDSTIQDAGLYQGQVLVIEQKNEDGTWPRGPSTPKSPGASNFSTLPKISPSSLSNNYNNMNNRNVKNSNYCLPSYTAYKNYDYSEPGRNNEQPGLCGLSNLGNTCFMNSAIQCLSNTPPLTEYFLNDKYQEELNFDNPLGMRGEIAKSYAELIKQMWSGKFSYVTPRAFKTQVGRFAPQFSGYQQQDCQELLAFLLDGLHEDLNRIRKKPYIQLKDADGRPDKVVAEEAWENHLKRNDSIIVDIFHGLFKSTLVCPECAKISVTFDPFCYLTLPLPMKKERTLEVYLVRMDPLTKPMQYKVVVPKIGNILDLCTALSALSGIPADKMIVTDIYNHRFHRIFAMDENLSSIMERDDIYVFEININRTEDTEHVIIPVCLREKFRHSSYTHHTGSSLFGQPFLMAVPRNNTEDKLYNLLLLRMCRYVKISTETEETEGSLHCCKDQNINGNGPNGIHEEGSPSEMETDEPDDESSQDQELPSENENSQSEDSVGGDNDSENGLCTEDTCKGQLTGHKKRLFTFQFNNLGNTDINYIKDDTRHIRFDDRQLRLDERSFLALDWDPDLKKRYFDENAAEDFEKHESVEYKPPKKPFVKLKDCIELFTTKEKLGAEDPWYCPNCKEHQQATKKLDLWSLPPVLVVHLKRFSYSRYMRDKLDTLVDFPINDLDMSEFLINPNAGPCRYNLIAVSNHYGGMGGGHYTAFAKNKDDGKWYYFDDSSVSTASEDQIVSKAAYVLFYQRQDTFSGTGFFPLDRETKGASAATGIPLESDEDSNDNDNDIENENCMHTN
UniProt Q9Y6I4: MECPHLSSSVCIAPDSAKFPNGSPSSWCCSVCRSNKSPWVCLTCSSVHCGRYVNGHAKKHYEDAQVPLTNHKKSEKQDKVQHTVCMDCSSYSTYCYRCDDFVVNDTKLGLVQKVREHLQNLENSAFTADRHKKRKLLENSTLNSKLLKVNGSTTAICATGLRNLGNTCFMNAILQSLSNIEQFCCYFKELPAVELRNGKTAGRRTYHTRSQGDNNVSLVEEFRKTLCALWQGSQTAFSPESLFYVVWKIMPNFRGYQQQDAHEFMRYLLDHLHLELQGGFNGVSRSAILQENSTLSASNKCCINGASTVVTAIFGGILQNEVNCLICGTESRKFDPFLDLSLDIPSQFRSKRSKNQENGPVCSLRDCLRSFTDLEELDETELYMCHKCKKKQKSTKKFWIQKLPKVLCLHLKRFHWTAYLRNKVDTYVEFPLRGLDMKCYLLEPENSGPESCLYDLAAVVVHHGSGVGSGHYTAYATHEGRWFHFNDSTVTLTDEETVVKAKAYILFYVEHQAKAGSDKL
UniProt P63027, whole entry, looked up: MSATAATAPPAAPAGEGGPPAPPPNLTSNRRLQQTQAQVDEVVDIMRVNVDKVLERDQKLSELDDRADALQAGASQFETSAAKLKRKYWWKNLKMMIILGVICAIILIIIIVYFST

Legend:
Test in all cases: log2 fold change, soluble protein after heating vs DMSO (PISA); higher = thermal stabilisation; K562 lysate, 10 uM; active = over 0.2 and 3.5 SD of the protein, either way, in both replicates (recomputed)
[1] = compound: C#Cc1cccc(Nc2ncnc3cc(OCCOC)c(OCCOC)cc23)c1 [erlotinib]
How it was run: (§1)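 Log-two fold change in thermal stability relative to solvent controls is reported from duplicates. For each sample, crude K562 extract from dounce-homogenised pellets in PBS pH 7.4 with 1 mM MgCl2, at 1 mg/mL protein, was treated with 10 μM compound for 30 min. Aliquots heated for 3 min across 48°C-58°C were pooled, brought to 0.5% NP-40 at 4°C and cleared at 21,000xg for 90 min. The supernatant was quantified by TMTpro 16plex LC-MS/MS with channel sums equalised.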

[2] = compound: C/C(=N\NC(=O)C1=CC(=CC=C1)S(=O)(=O)N2CCOCC2)/C3=C(C=CC(=C3)Cl)O
How it was run: as §1

[3] = compound: C1=CC(=CC=C1C2=NC3=C(N2)C=C(C=C3)C(=O)N)OC4=CC=C(C=C4)Cl
How it was run: as §1

[4] = compound: C1=CC2=C(C=CC(=C2)/C=C\3/C(=O)NC(=NCC4=CC=CS4)S3)N=C1
How it was run: as §1

[5] = compound: C1=CC2=NC=CN=C2C=C1/C=C/3\C(=O)NC(=O)S3
How it was run: as §1

[6] = compound: C1=CC=C(C=C1)C2=NC(=C(N2)C3=CC=NC=C3)C4=CC(=C(C=C4)Cl)O
How it was run: as §1

[7] = compound: C1=CC=C2C(=C1)C3=NNC4=CC=CC(=C43)C2=O
How it was run: as §1

[8] = compound: C1CCN(C1)C(=O)NC2=CC=CC(=C2)NC3=NC=C(C(=N3)NCCC4=CN=CN4)Br
How it was run: as §1

[9] = compound: C1CN(CCC1(CC2=CC=C(C=C2)Cl)N)C3=NC=NC4=C3C=CN4
How it was run: as §1

[10] = compound: C1COCCN1CCN2C3=CC=CC=C3N=C2NC(=O)C4=CC(=CC=C4)[N+](=O)[O-] [IRAK-1-4 Inhibitor I]
How it was run: as §1

[11] = compound: C=CC(=O)N1CCC[C@@H](n2nc(-c3ccc(Oc4ccccc4)cc3)c3c(N)ncnc32)C1 [ibrutinib]
How it was run: as §1

[12] = compound: CC(=O)c1cnc2ccc(-c3cc(Cl)c(O)c(Cl)c3)nc2c1N[C@H]1CC[C@H](CN(C)C)CC1
How it was run: as §1

[13] = compound: CC(C)(C)Cn1c(N)nc2ccc(-c3[nH]c(C(C)(C)C)nc3-c3ccc(F)cc3)nc21 [ralimetinib]
How it was run: as §1

[14] = compound: CC(C)(O)CC(=O)NCCn1ccc2ncnc(Nc3ccc(Oc4cccc(C(F)(F)F)c4)c(Cl)c3)c21
How it was run: as §1

[15] = compound: CC(C)C1=C2N=C(C=C(N2N=C1)NCC3=CC=CC=C3)NCCCCCCN
How it was run: as §1

[16] = compound: CC1=C(C(CC(=O)N1)C2=CC=C(C=C2)C(F)(F)F)C(=O)NC3=C(C=C4C(=C3)C=NN4)F
How it was run: as §1

[17] = compound: CC1=C(C2=C(C=C1)C(=O)C3=CC=CC=C3N2CCCN)C
How it was run: as §1

[18] = compound: CC1=C(C=C(C=C1)NC(=O)C2=CC(=CC=C2)C(C)(C)C#N)NC3=CC4=C(C=C3)N=CN(C4=O)C
How it was run: as §1

[19] = compound: CC1=C(C=C(C=C1)NC(=O)C2=CC(=CC=C2)N(C)C)NC(=O)C3=CC=C(C=C3)O
How it was run: as §1

[20] = compound: CC1=CC=C(C=C1)SC2=C3C=C(SC3=CN=C2)C(=O)N
How it was run: as §1

Measured: log2 fold change

UFC1 (UniProt Q9Y3C8)
inactive: [1] -0.071 | [2] 0.049 | [3] -0.003 | [4] 0.01 | [5] -0.021 | [6] -0.014 | [7] 0.008 | [8] -0.003 | [9] -0.034 | [10] 0.001 | [11] 0.05 | [12] -0.019 | [13] -0.021 | [14] 0.01 | [15] -0.014 | [16] -0.021 | [17] -0.019 | [18] -0.002 | [19] 0.012 | [20] -0.003

UCKL1 (UniProt Q9NWZ5)
inactive: [1] 0.044 | [2] -0.027 | [3] -0.012 | [4] 0.025 | [5] -0.004 | [6] 0.04 | [7] -0.039 | [8] -0.014 | [9] 0.007 | [10] -0.009 | [11] 0.024 | [12] 0.017 | [13] 0.108 | [14] 0.03 | [15] -0.024 | [16] 0.016 | [17] 0.039 | [18] -0.016 | [19] 0.059 | [20] 0.027

VCP (UniProt P55072)
inactive: [1] -0.009 | [2] -0.002 | [3] 0.027 | [4] -0.009 | [5] -0.011 | [6] -0.002 | [7] 0.012 | [8] 0.011 | [9] -0.012 | [10] -0.008 | [11] 0.015 | [12] -0.009 | [13] -0.031 | [14] -0.007 | [15] 0.005 | [16] -0.018 | [17] 0.018 | [18] 0.012 | [19] -0.016 | [20] -0.012

Reprinted at random: 2 entries already listed.
UFC1 (UniProt Q9Y3C8)
inactive: [1] -0.071 | [2] 0.049 | [3] -0.003 | [4] 0.01 | [5] -0.021 | [6] -0.014 | [7] 0.008 | [8] -0.003 | [9] -0.034 | [10] 0.001 | [11] 0.05 | [12] -0.019 | [13] -0.021 | [14] 0.01 | [15] -0.014 | [16] -0.021 | [17] -0.019 | [18] -0.002 | [19] 0.012 | [20] -0.003

UCKL1 (UniProt Q9NWZ5)
inactive: [1] 0.044 | [2] -0.027 | [3] -0.012 | [4] 0.025 | [5] -0.004 | [6] 0.04 | [7] -0.039 | [8] -0.014 | [9] 0.007 | [10] -0.009 | [11] 0.024 | [12] 0.017 | [13] 0.108 | [14] 0.03 | [15] -0.024 | [16] 0.016 | [17] 0.039 | [18] -0.016 | [19] 0.059 | [20] 0.027

(list continues)

VAPA isoform 2 (UniProt Q9P0L0)
inactive: [1] 0.003 | [2] -0.015 | [3] 0.046 | [4] -0.007 | [5] 0.003 | [6] -0.018 | [7] -0.108 | [8] -0.015 | [9] 0.019 | [10] 0.001 | [11] 0.01 | [12] -0.008 | [13] -0.014 | [14] 0 | [15] -0.009 | [16] 0.014 | [17] 0.011 | [18] 0.023 | [19] -0.022 | [20] -0.035

VAMP7 (UniProt P51809)
inactive: [1] -0.014 | [2] 0.01 | [3] -0.002 | [4] 0.003 | [5] 0 | [6] -0.01 | [7] -0.02 | [8] -0.009 | [9] 0.044 | [10] -0.007 | [11] -0.036 | [12] -0.004 | [13] 0.005 | [14] 0.009 | [15] -0.004 | [16] 0.009 | [17] 0.039 | [18] -0.003 | [19] -0.004 | [20] -0.018

UQCRH (UniProt P07919)
inactive: [1] -0.008 | [2] 0.015 | [3] -0.034 | [4] -0.032 | [5] 0.067 | [6] -0.002 | [7] -0.048 | [8] 0.001 | [9] -0.002 | [10] -0.029 | [11] 0.08 | [12] -0.014 | [13] 0.081 | [14] 0.019 | [15] -0.053 | [16] 0.011 | [17] 0.047 | [18] 0.01 | [19] -0.003 | [20] -0.01

USP48 (UniProt Q86UV5)
inactive: [1] 0.022 | [2] 0.001 | [3] -0.015 | [4] -0.051 | [5] 0.006 | [6] 0.001 | [7] 0.049 | [8] -0.033 | [9] 0.013 | [10] -0.026 | [11] -0.028 | [12] -0.224 | [13] -0.038 | [14] 0.031 | [15] -0.009 | [16] 0.018 | [17] 0 | [18] -0.039 | [19] 0.041 | [20] -0.227

USO1 isoform 2 (UniProt O60763)
inactive: [1] 0 | [2] 0.011 | [3] 0.005 | [4] 0 | [5] -0.007 | [6] -0.002 | [7] -0.012 | [8] -0.004 | [9] 0.002 | [10] -0.015 | [11] -0.018 | [12] -0.009 | [13] 0.009 | [14] -0.028 | [15] -0.034 | [16] -0.001 | [17] -0.005 | [18] 0.024 | [19] 0.004 | [20] 0

UNC119B (UniProt A6NIH7)
inactive: [1] -0.068 | [2] 0.278 | [3] 0.029 | [4] -0.041 | [5] 0.007 | [6] 0.264 | [7] -0.061 | [8] 0.026 | [9] -0.044 | [10] 0.02 | [11] -0.034 | [12] -0.022 | [13] -0.098 | [14] 0.011 | [15] 0.035 | [16] 0.019 | [17] -0.086 | [18] 0.059 | [19] -0.034 | [20] -0.04

UXT isoform 2 (UniProt Q9UBK9)
inactive: [1] 0.012 | [2] -0.036 | [3] 0.033 | [4] 0.021 | [5] -0.054 | [6] 0.035 | [7] 0.012 | [8] -0.033 | [9] 0.186 | [10] 0.007 | [11] -0.078 | [12] -0.018 | [13] -0.063 | [14] -0.075 | [15] 0.006 | [16] -0.035 | [17] -0.091 | [18] 0 | [19] -0.015 | [20] -0.032

VAV3 isoform 4 (UniProt Q9UKW4)
inactive: [1] 0.035 | [2] 1.07 | [3] -0.029 | [4] -0.144 | [5] 0.117 | [6] 0.012 | [7] -0.133 | [8] 0.148 | [9] -0.08 | [10] -0.017 | [11] 0.068 | [12] -0.109 | [13] -0.049 | [14] -0.013 | [15] -0.028 | [16] -0.013 | [17] 0.085 | [18] -0.03 | [19] -0.026 | [20] 0.058

UPRT (UniProt Q96BW1)
inactive: [1] -0.015 | [2] 0.203 | [3] -0.074 | [4] -0.007 | [5] -0.095 | [6] 0 | [7] -0.103 | [8] 0.043 | [9] 0.002 | [10] 0.003 | [11] 0.042 | [12] 0.156 | [13] 0.101 | [14] -0.091 | [15] 0.026 | [16] 0.012 | [17] 0.005 | [18] -0.025 | [19] 0.077 | [20] 0.074

USP15 (UniProt Q9Y4E8)
inactive: [1] 0.009 | [2] -0.011 | [3] -0.009 | [4] -0.001 | [5] -0.02 | [6] 0.001 | [7] -0.011 | [8] -0.004 | [9] -0.012 | [10] -0.016 | [11] -0.013 | [12] -0.001 | [13] 0.001 | [14] 0.007 | [15] -0.008 | [16] -0.009 | [17] 0 | [18] -0.032 | [19] 0 | [20] 0.018

UTP20 (UniProt O75691)
inactive: [1] 0.078 | [2] -0.182 | [3] -0.098 | [4] -0.041 | [5] 0.027 | [6] 0.035 | [7] 0.013 | [8] -0.004 | [9] 0.077 | [10] 0.006 | [11] 0.017 | [12] 0 | [13] -0.01 | [14] 0.03 | [15] -0.002 | [16] -0.017 | [17] -0.053 | [18] -0.042 | [19] 0 | [20] 0.018

USP3 (UniProt Q9Y6I4)
inactive: [1] -0.001 | [2] 0.05 | [3] 0.033 | [4] 0.031 | [5] 0.018 | [6] 0.011 | [7] 0.014 | [8] -0.037 | [9] 0.035 | [10] -0.044 | [11] 0.01 | [12] 0.048 | [13] 0.042 | [14] -0.027 | [15] 0.014 | [16] 0.024 | [17] 0.011 | [18] -0.014 | [19] 0.016 | [20] -0.025

VAMP2 (UniProt P63027)
inactive: [1] -0.083 | [2] 0.055 | [3] -0.024 | [4] -0.063 | [5] 0.063 | [6] -0.082 | [7] -0.037 | [8] 0.081 | [9] -0.009 | [10] -0.033 | [11] -0.039 | [12] -0.027 | [13] 0.002 | [14] -0.006 | [15] -0.036 | [16] -0.069 | [17] -0.01 | [18] -0.048 | [19] 0.047 | [20] 0.035
